# Results taken from the supplement of paper PMC8728848.
# The list shows a part of the results.
# B1: Wzz (Escherichia coli) (protein)
# chain: MRTWKFPSVRVMMRVENNNVSGQNHDPEQIDLIDLLVQLWRGKMTIIISVIVAIVLAIGYLAVAKEKWTSTAIITQPDVGQIAGYNNAMNVIYGQAAPKVSDLQETLIGRFSSAFSALAETLDNQEEPEKLTIEPSVKNQQLPLTVSYVGQTAEGAQMKLAQYIQQVDDKVNQELEKDLKDNIALGRKNLQDSLRTQEVVAQEQKDLRIRQIQEALQYANQAQVTKPQIQQTGEDITQDTLFLLGSEALESMIKHEATRPLVFSSNYYQTRQNLLDIDNLDVDKLDIHAYLYVMKPTLPIRRDSPKKAITLILAVLLGGMVGAGIVLGRNALRNYNAK
# Tests used:
# Assay in all cases: glycan array binding signal (z-score within array); higher = stronger binding
# Conditions in all cases: glycan notation: IUPAC condensed, linker removed
# [1] = biological target: Neu5Ac(a2-8)Neu5Ac
# Method in brief: (§1)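 Arrays were curated from the Consortium for Functional Glycomics database, 3228 in total, and kept only where the protein sequence was available. Binding is expressed as a within-array Z-score. This score was averaged across arrays of the same protein sequence at different concentrations or buffers and across linkers, and negative values can be read as non-binding.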
# [2] = biological target: Neu5Ac(a2-8)Neu5Ac(a2-3)Gal(b1-3)GalNAc(b1-4)[Neu5Ac(a2-3)]Gal(b1-4)Glc
# Method in brief: as §1
# [3] = biological target: Neu5Ac(a2-8)Neu5Ac(a2-3)Gal(b1-3)GalNAc(b1-4)[Neu5Ac(a2-8)Neu5Ac(a2-3)]Gal(b1-4)Glc
# Method in brief: as §1
# [4] = biological target: Neu5Ac(a2-8)Neu5Ac(a2-3)Gal(b1-4)Glc
# Method in brief: as §1
# [5] = biological target: Neu5Ac(a2-8)Neu5Ac(a2-3)Gal(b1-4)GlcNAc
# Method in brief: as §1
# [6] = biological target: Neu5Ac(a2-8)Neu5Ac(a2-3)[Gal(b1-3)GalNAc(b1-4)]Gal(b1-4)Glc
# Method in brief: as §1
# [7] = biological target: Neu5Ac(a2-8)Neu5Ac(a2-3)[GalNAc(b1-4)]Gal(b1-4)Glc
# Method in brief: as §1
# [8] = biological target: Neu5Ac(a2-8)Neu5Ac(a2-8)Neu5Ac
# Method in brief: as §1
# [9] = biological target: Neu5Ac(a2-8)Neu5Ac(a2-8)Neu5Ac(a2-3)Gal(b1-4)Glc
# Method in brief: as §1
# [10] = biological target: Neu5Ac(a2-8)Neu5Ac(a2-8)Neu5Ac(a2-3)[Gal(b1-3)GalNAc(b1-4)]Gal(b1-4)Glc
# Method in brief: as §1
# [11] = biological target: Neu5Ac(a2-8)Neu5Ac(a2-8)Neu5Ac(a2-3)[GalNAc(b1-4)]Gal(b1-4)Glc
# Method in brief: as §1
# [12] = biological target: Neu5Ac(a2-8)Neu5Ac(a2-8)Neu5Ac(a2-8)Neu5Ac(a2-3)[GalNAc(b1-4)]Gal(b1-4)Glc
# Method in brief: as §1
# [13] = biological target: Neu5Ac(a2-8)Neu5Gc(a2-3)Gal(b1-4)GlcNAc
# Method in brief: as §1
# [14] = biological target: Neu5Ac(b2-6)Gal(b1-4)GlcNAc
# Method in brief: as §1
# [15] = biological target: Neu5Ac(b2-6)GalNAc
# Method in brief: as §1
# [16] = biological target: Neu5Ac9Ac(a2-3)Gal(b1-3)GlcNAc
# Method in brief: as §1
# [17] = biological target: Neu5Ac9Ac(a2-3)Gal(b1-4)GlcNAc
# Method in brief: as §1
# [18] = biological target: Neu5Ac9Ac(a2-6)Gal(b1-4)GlcNAc
# Method in brief: as §1
# [19] = biological target: Neu5Gc(a2-3)Gal(b1-3)GlcNAc
# Method in brief: as §1
# [20] = biological target: Neu5Gc(a2-3)Gal(b1-3)[Fuc(a1-4)]GlcNAc
# Method in brief: as §1
# [21] = biological target: Neu5Gc(a2-3)Gal(b1-4)Glc
# Method in brief: as §1
# [22] = biological target: Neu5Gc(a2-3)Gal(b1-4)GlcNAc
# Method in brief: as §1
# [23] = biological target: Neu5Gc(a2-3)Gal(b1-4)GlcNAc(b1-3)Gal(b1-4)GlcNAc(b1-2)Man(a1-3)[Neu5Gc(a2-3)Gal(b1-4)GlcNAc(b1-3)Gal(b1-4)GlcNAc(b1-2)Man(a1-6)]Man(b1-4)GlcNAc(b1-4)GlcNAc
# Method in brief: as §1
# [24] = biological target: Neu5Gc(a2-3)Gal(b1-4)[Fuc(a1-3)]GlcNAc
# Method in brief: as §1
# [25] = biological target: Neu5Gc(a2-6)Gal(b1-4)GlcNAc
# Method in brief: as §1
# [26] = biological target: Neu5Gc(a2-6)GalNAc
# Method in brief: as §1
# [27] = biological target: Neu5Gc(a2-8)Neu5Ac(a2-3)Gal(b1-4)GlcNAc
# Method in brief: as §1
# [28] = biological target: Neu5Gc(a2-8)Neu5Gc(a2-3)Gal(b1-4)GlcNAc
# Method in brief: as §1
# [29] = biological target: Neu5Gc(a2-8)Neu5Gc(a2-3)Gal(b1-4)GlcNAc(b1-3)Gal(b1-4)GlcNAc
# Method in brief: as §1
# [30] = biological target: Neu5Gc(a2-8)Neu5Gc(a2-6)Gal(b1-4)GlcNAc
# Method in brief: as §1
# [31] = biological target: Neu5Gc(b2-6)Gal(b1-4)GlcNAc
# Method in brief: as §1
binder,measurement,setting,value
B1,glycan array binding signal (z-score),[1],-0.367
same,glycan array binding signal (z-score),[2],0.181
same,glycan array binding signal (z-score),[3],0.123
same,glycan array binding signal (z-score),[4],-1.26
same,glycan array binding signal (z-score),[5],-0.609
same,glycan array binding signal (z-score),[6],0.345
same,glycan array binding signal (z-score),[7],1.61
same,glycan array binding signal (z-score),[8],1.31
same,glycan array binding signal (z-score),[9],0.654
same,glycan array binding signal (z-score),[10],-0.252
same,glycan array binding signal (z-score),[11],1.24
same,glycan array binding signal (z-score),[12],0.336
same,glycan array binding signal (z-score),[13],-0.39
same,glycan array binding signal (z-score),[14],-0.813
same,glycan array binding signal (z-score),[15],-0.61
same,glycan array binding signal (z-score),[16],-0.549
same,glycan array binding signal (z-score),[17],-0.537
same,glycan array binding signal (z-score),[18],-0.542
same,glycan array binding signal (z-score),[19],-0.205
same,glycan array binding signal (z-score),[20],0.201
same,glycan array binding signal (z-score),[21],0.351
same,glycan array binding signal (z-score),[22],-0.21
same,glycan array binding signal (z-score),[23],-0.88
same,glycan array binding signal (z-score),[24],0.113
same,glycan array binding signal (z-score),[25],0.167
same,glycan array binding signal (z-score),[26],0.139
same,glycan array binding signal (z-score),[27],0.07
same,glycan array binding signal (z-score),[28],-0.883
same,glycan array binding signal (z-score),[29],-0.496
same,glycan array binding signal (z-score),[30],0.212
same,glycan array binding signal (z-score),[31],0.203

# Some of the entries so far, with bars between the fields.
binder | measurement | setting | value
B1 | glycan array binding signal (z-score) | [1] | -0.367
same | glycan array binding signal (z-score) | [10] | -0.252
